From EP4293046A1 (Shanghai Jemincare Pharmaceuticals Co., Ltd., dated 2023)
Results are given in words; binding and its absence hold for the method and conditions named. A result given as binding can be weak or reduced; the word gives no strength.

Biological target: monkey PD-1 (Acro, Catalog Number: PD-1-C5223) (monkey)
Test: summary of Example 7 (BLI and flow cytometry)

binding: binds
B1: Ab2005Am08 (antibody, V domains shown)
VH: EVQLVESGGGLVKPGGSLRLSCAASGFTFSNYDMSWVRQAPGKGLEWVSTISGGGRYTYYADSVKGRFTISRDNAKNSLYLQMNSLRAEDTAVYYCVSPYYGMEYWGQGTLVTVSS
VL: DIQLTQSPSFLSASVGDRVTITCKASQDVGTAVAWYQQKPGKAPKLLIYWASTRHTGVPSRFSGSGSGTEFTLTISSLQPEDFATYFCQQYSSYPWTFGGGTKVEIK
notes: also called clone YC215H3 as IgG
